# Reference: PubChem BioAssay AID588456 (National Center for Advancing Translational Sciences (NCATS), 2011)
# Chains of the proteins cited; added tags and fusions are not shown.
# UniProt O89049, whole entry, looked up: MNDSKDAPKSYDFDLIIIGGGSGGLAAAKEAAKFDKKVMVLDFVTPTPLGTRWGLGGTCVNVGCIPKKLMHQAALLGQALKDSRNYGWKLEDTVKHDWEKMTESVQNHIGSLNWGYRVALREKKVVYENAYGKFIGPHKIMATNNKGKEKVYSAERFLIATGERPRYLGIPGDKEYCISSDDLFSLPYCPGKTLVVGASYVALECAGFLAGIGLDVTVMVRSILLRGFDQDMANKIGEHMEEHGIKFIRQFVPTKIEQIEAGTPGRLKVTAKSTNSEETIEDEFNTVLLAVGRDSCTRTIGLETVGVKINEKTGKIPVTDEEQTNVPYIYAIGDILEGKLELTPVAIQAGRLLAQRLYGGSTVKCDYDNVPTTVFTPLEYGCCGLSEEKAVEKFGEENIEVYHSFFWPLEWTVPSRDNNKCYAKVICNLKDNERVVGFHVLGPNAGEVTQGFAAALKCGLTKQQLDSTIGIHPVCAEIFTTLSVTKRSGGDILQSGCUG
# What follows is the remainder of the data, with few or none of the hits. Active and inactive are the calls of the source. Calls follow the shape of the dose curve; as a rule, active = well fitted inhibition curve with a large enough effect; inconclusive = small, poorly fitted or top-dose-only effect; inactive = no such curve, though single readings can be large or run the other way.
# Target: Thioredoxin reductase 1, cytoplasmic (Rattus norvegicus) (UniProt O89049)
# Experiment: qHTS Assay for Substrates of Mammalian Selenoprotein Thioredoxin Reductase 1 (TrxR1): qHTS; also: nearly all actives have a fitted effect of over 50% in size
# Conditions: purified TrxR1 substrate turnover, NADPH consumption readout; at 114 µM (top of the series)
# Source text: The selenoprotein thioredoxin reductase (TrxR; EC 1.8.1.9) is a FAD containing homodimeric pyridine nucleotide-disulfide oxidoreductase with many cellular roles. Together with NADPH and its prime substrate thioredoxin (Trx), the enzyme forms the core of the Trx system. The mammalian Trx system exerts a wide spectrum of functions including redox regulation, antioxidant defense, regulation of transcription factors as well as support of cell growth and replication. Many of these functions involve the reduction of Trx, which may subsequently reduce a number of different substrates including ribonucleotide reductase, peroxiredoxins or NFkB. […]
# This BioAssay is a validation of an NADPH fluorescence-based, dual-purpose qHTS rTrxR1 assay designed to find potential inhibitors and substrates of rTrxR1. […]
# Assay protocol: 2 uL of reagents (buffer in column 4 as negative control and 90 nM rTrxR1 in columns 1-3 and 5-48) were dispensed into Greiner black solid-bottom 1,536-well assay plates, followed by 1 uL of NADPH (400 uM final concentration) to each well. […] The plate was immediately transferred to a ViewLux high-throughput CCD imager (PerkinElmer), wherein kinetic measurements of NADPH fluorescence (Ex 340 nm, Em 450 nm) were acquired (8 minute kinetic read, see Table 1). […]
# % is scaled to controls: 0 for no effect and ±100 for the full control effect.
row,SMILES,"activity change, negative = substrate turnover"
1,CN1[C@@H]2CC[C@H]1CC(OC(=O)C(O)c1ccccc1)C2 (some centres not stated),inactive: 4.32%
2,O=c1ccc2ccc(OCc3ccccc3)cc2o1,inactive: 42.2%
